Drawing on publication PMC4858687, this text covers binding for 2 substances.

Protein sequences, listed by entry. Tags and fused reporters are not part of them. Lines headed by an entry give the natural chain unless they say otherwise; changes in a name come on top.
UniProt Q9UEE9: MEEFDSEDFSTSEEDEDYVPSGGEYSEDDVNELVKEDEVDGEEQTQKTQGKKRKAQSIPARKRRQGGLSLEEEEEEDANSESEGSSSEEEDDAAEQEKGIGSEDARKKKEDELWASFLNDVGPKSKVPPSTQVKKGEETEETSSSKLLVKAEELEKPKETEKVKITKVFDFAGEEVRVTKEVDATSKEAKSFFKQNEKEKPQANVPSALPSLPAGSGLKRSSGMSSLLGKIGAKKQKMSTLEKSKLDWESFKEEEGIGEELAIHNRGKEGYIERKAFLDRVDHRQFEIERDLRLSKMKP
UniProt A0A0B7PL88: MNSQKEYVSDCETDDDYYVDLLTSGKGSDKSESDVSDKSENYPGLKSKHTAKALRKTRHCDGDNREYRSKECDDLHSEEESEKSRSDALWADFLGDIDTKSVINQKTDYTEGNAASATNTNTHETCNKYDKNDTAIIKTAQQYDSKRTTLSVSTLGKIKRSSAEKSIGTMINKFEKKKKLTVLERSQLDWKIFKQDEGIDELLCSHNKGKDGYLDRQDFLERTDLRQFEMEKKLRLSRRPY

Test [1] concerns the target GST::YETI (D. melanogaster). As to the kind of experiment: pull-down; GST, GST::YETI or GST::CFDP1 bound to glutathione-agarose beads, incubated overnight at 4 °C with whole Drosophila larvae extracts in 20 mM Tris pH 8, 150 mM NaCl, 0.5% Nonidet P-40, 1 mM EDTA; five washes; Western blotting (anti-Flag or anti-CFDP1); only the target purified.
For test [2], the target named is GST::CFDP1 (human) (UniProt Q9UEE9). The description is as above.

These are yes or no findings as the source states them, for the method shown. In cells and extracts the contact can be indirect. A result given as binding can be weak or reduced; the word gives no strength.

Consider 3xFLAG::YETI (from UniProt A0A0B7PL88), for which the binding result in test [1] and in test [2] was “binds” in each case.

Regarding “CFDP1 protein expressed from the UAS-Cfdp1 transgene in Drosophila larvae (from UniProt Q9UEE9 1-299)”, the binding entry in test [1] is listed as “binds”.
